According to US11173151B2, “Substituted triazole derivatives and uses thereof” (BAYER AKTIENGESELLSCHAFT, priority 2017, dated 2021):
For at least one compound, name, drawing or mass did not settle the structure.

Chains of the proteins cited; added tags and fusions are not shown.
UniProt P37288, whole entry: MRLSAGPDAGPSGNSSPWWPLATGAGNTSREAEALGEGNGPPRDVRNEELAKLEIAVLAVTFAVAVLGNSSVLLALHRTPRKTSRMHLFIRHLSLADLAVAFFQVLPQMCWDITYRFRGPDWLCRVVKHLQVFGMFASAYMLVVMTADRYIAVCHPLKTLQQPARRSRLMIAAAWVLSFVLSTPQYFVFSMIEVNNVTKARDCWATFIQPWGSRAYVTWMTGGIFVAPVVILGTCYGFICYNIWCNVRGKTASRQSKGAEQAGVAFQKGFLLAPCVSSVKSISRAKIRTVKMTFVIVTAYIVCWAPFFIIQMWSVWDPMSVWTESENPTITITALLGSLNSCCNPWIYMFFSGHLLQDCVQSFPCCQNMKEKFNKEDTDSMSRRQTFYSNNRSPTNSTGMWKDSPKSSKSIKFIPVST

Target: T1, human V1a receptor (Homo sapiens, UniProt P37288)
T1 construct: expressed in transfected cells; host or cells: CHO K1 (ATCC), also stably transfected with a modified aequorin
Test: Cellular in vitro assay for determining vasopressin receptor activity, V1a receptor cell line (CHO, aequorin luminescence)
Format: cell-based
Conditions: selectivity ratio IC50 hV2 / IC50 hV1a
Procedure: B-1. Cellular In Vitro Assay for Determining Vasopressin Receptor Activity
The identification of agonists and antagonists of the V1a and V2 vasopressin receptors from humans, rats and dogs as well as the quantification of the activity of the compounds of the invention is carried out using recombinant cell lines. These cell lines originally derive from a hamster's ovary epithelial cell (Chinese Hamster Ovary, CHO K1, ATCC: American Type Culture Collection, Manassas, Va. 20108, USA). The test cell lines constitutively express the human, rat or dog V1a or V2 receptors. In case of the Gαq-coupled V1a receptors, cells are also stably transfected with a modified form of the calcium-sensitive photoproteins aequorin (human and rat V1a) or obelin (dog V1a), which, after reconstitution with the cofactor coelenterazine, emit light when there are increases in free calcium concentrations [Rizzuto R, Simpson A W, Brini M, Pozzan T, Nature 358, 325-327 (1992); Illarionov B A, Bondar V S, Illarionova V A, Vysotski E S, Gene 153 (2), 273-274 (1995)]. The resulting vasopressin receptor cells react to stimulation of the recombinantly expressed V1a receptors by intracellular release of calcium ions, which can be quantified by the resulting photoprotein luminescence. The Gs-coupled V2 receptors are stably transfected into cell lines expressing the gene for firefly luciferase under control of a CRE-responsible promoter. Activation of V2 receptors induces the activation of the CRE-responsive promoter via cAMP increase, thereby inducing the expression of firefly luciferase. […] The bioluminescence of the cell lines is detected using a suitable luminometer [Milligan G, Marshall F, Rees S, Trends in Pharmacological Sciences 17, 235-237 (1996)]. […]
On the day before the assay, the cells are plated out in culture medium (DMEM/F12, 2% FCS, 2 mM glutamine, 10 mM HEPES, 5 μg/ml coelenterazine) in 384-well microtiter plates and kept in a cell incubator (96% humidity, 5% v/v CO2, 37° C.). […] The resulting light signal is measured immediately in a luminometer. […]

Row | SMILES | ratio IC50 hV2/hV1a
1 | O=C(c1cccc(Cl)c1-n1cnc(Cn2nc(-c3ccc(Cl)cc3)n(C[C@H](O)C(F)(F)F)c2=O)n1)N1CCC(O)(C(F)(F)F)C1 (mixture of isomers) [Example 379, 2-{[1-(2-Chloro-6-{[hydroxy-3-(trifluoromethyl)pyrrolidin-1-yl]carbonyl}phenyl)-1H-1,2,4-triazol-3-yl]methyl}-5-(4-chlorophenyl)-4-[(2S)-3,3,3-trifluoro-2-hydroxypropyl]-2,4-dihydro-3H-1,2,4-triazol-3-one] | 12.0
2 | O=C(c1ccccc1-n1cnc(Cn2nc(-c3ccc(Cl)cc3)n(C[C@H](O)C(F)(F)F)c2=O)n1)N1CCOCC1 [Example 172, 5-(4-Chlorophenyl)-2-({1-[2-(morpholin-4-ylcarbonyl)phenyl]-1H-1,2,4-triazol-3-yl}methyl)-4-[(2S)-3,3,3-trifluoro-2-hydroxypropyl]-2,4-dihydro-3H-1,2,4-triazol-3-one] | 651.5
3 | CC1(C)CN(C(=O)c2ccccc2-n2cnc(Cn3nc(-c4ccc(Cl)cc4)n(C[C@H](O)C(F)(F)F)c3=O)n2)CCN1 [Example 181, 5-(4-Chlorophenyl)-2-[(1-{2-[(3,3-dimethylpiperazin-1-yl)carbonyl]phenyl}-1H-1,2,4-triazol-3-yl)methyl]-4-[(2S)-3,3,3-trifluoro-2-hydroxypropyl]-2,4-dihydro-3H-1,2,4-triazol-3-one] | 95.6
